The values below come from ChEMBL document CHEMBL4513154, “CO-ADD screening of Jain University (India) compounds”.

The list shows a part of the results. Measured potencies and affinities stand elsewhere.

The assay has as its system Pseudomonas aeruginosa. To be noted: Concentration 32 ug.mL-1; ASSAY_TEST Inhibition of Bacterial Growth; detection method Absorption (OD600); MEDIA CAMHB; plate type 384well; NBS; CORNING #3640; time 18 hr.
What is called Inhibition is the drop in the measured response relative to a control, in per cent. In the case of `Clc1ccc(Cn2c(-c3cscn3)nc3ccccc32)cn1`, the Inhibition is 16.53%. Then `Clc1ccc2c(c1)nc(-c1cscn1)n2Cc1ccc(Cl)nc1`, with -1.6%. Consider `Clc1ccc(Cn2c(-c3cscn3)nc3c(Cl)cccc32)cn1`, for which the Inhibition worked out at 7.96%.
